Measurements published in publication PMC9073322.
Substitutions are numbered along the chain they refer to. These are yes or no findings as the source states them, for the method shown. For some assays here: Binding seen in cells or lysates may run through a third protein. Some entries that bind do so weakly or less than the wild type. Where a sequence is shown, tags or fusion partners need not be part of it. Values belong to the binder of their own block, whether it stands above or below them.

Assays:
[1] = molecular target: T1, cLUC-D14 (Arabidopsis thaliana) (UniProt Q9SQR3); assay: split reporter; split-LUC complementation in N. benthamiana Nbd14 leaves; SMXL-nLUC and cLUC-D14 fusions transiently co-expressed with mCherry; luminescence before and 1 h after 10 μM GR24^5DS, normalized against mCherry fluorescence
T1 sequence: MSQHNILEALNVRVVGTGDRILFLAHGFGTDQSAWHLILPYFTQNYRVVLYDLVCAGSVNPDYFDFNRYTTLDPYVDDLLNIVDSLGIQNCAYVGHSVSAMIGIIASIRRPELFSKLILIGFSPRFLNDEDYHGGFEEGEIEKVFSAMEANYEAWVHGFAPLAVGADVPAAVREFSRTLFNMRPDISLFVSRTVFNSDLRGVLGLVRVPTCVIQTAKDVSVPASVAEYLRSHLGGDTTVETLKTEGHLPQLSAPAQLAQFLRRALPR

[2] = molecular target: T2, cLUC-d14^seto (Arabidopsis thaliana) (UniProt Q9SQR3); assay: as above
T2 sequence: T1 sequence with P169L

[3] = molecular target: T3, cLUC-d14^S97A (Arabidopsis thaliana) (UniProt Q9SQR3); assay: as above
T3 sequence: T1 sequence with S97A

[4] = molecular target: T4, DWARF14 (D14) fused to GAL4-BD (Arabidopsis thaliana) (UniProt Q9SQR3); assay: two-hybrid; D14 or d14^seto fused to GAL4-BD, SMXL proteins and domains fused to GAL4-AD; serial dilutions of yeast on selective medium (-His low stringency, -His -Ade higher stringency) supplemented with 2 μM GR24^5DS
T4 sequence: T1 sequence

[5] = molecular target: T5, cLUC-d14^S97A (Arabidopsis thaliana), Q9SQR3; assay: split reporter; split-LUC complementation in N. benthamiana Nbd14 leaves; SMXL-nLUC and cLUC-D14 fusions transiently co-expressed with mCherry; luminescence before and 1 h after 10 μM GR24^5DS, normalized against mCherry fluorescence; conditions: remark: other sources report otherwise
T5 chain: T1 sequence with S97A

binding [1]: binds
binding [2]: binds
binding [3]: binds
B1: SMXL2-nLUC (protein, UniProt Q9M0C5 1-924)
chain: MRADLITIQQTLTPEAATVLNQSIAEATRRNHGHTTPLHVAATLLSSSSGYLRQACIKSHPNSSHPLQCRALELCFSVALERLPTTSTTTTTTSSSSSSSPSQTQEPLLSNALTAALKRAQAHQRRGCPEQQQQPLLAVKVELEQLIISILDDPSVSRVMREASFSSPAVKSAIEQSLIGNSVSNSRQTGSPGIINPSAIGFGYRSVPAPVNRNLYLNPRLQQPGVGMQSGMMIQRTDEAKRVIEIMIRTRKRNPVLVGDSEPHILVKEILEKIENGEFSDGALRNFQVIRLEKELVSQLATRLGEISGLVETRIGGGGVVLDLGDLKWLVEHPAANGGAVVEMRKLLERYKGRLCFIGTATCETYLRCQVYYPSMENDWDLQAIPIAAKSSLPAIFPRLGSNNNNNAMLLSNNIISIESISPTRSFQIPMSKMSCCSRCLQSYENDVAKVEKDLTGDNRSVLPQWLQNAKANDDGDKKLTKDQQIVELQKKWNDLCLRLHPNQSVSERIAPSTLSMMKINTRSDITPPGSPVGTDLVLGRPNRGLSSPEKKTREARFGKLGDSFDIDLFKKLLKGLAKSVWWQHDAASSVAAAITECKHGNGKSKGDIWLMFTGPDRAGKSKMASALSDLVSGSQPITISLGSSSRMDDGLNIRGKTALDRFAEAVRRNPFAVIVLEDIDEADILLRNNVKIAIERGRICDSYGREVSLGNVIIILTANSSLGSAKNVASIDETRLESLVNKGWELRLSVCNSSKTRKRKPNWLYSDNDQTKQRKEICFDLNEAAEFDSSSDVTVEHDQEDNGNLVHKLVGLVDDAILFRPVDFDSIKSKTAESLKKRFSNGLADGLTVEIEDDALERIAGAIWLSKISLEEWLEEAMGSSLNSVKSRVSSSEDSVIRIELEDDLNDRISGGYLPSSIRTVVV

binding [4]: binds
B2: SMAX1-LIKE 2 (SMXL2) in the yeast two-hybrid assay (protein, UniProt Q9M0C5 1-924)
chain: B1 chain

binding [5]: binds
B3: SMXL7-nLUC, O80875 1-1002 (protein)
chain: MPTPVTTARQCLTEETARALDDAVSVARRRSHAQTTSLHAVSGLLTMPSSILREVCISRAAHNTPYSSRLQFRALELCVGVSLDRLPSSKSTPTTTVEEDPPVSNSLMAAIKRSQATQRRHPETYHLHQIHGNNNTETTSVLKVELKYFILSILDDPIVSRVFGEAGFRSTDIKLDVLHPPVTSQFSSRFTSRSRIPPLFLCNLPESDSGRVRFGFPFGDLDENCRRIGEVLARKDKKNPLLVGVCGVEALKTFTDSINRGKFGFLPLEISGLSVVSIKISEVLVDGSRIDIKFDDLGRLKSGMVLNLGELKVLASDVFSVDVIEKFVLKLADLLKLHREKLWFIGSVSSNETYLKLIERFPTIDKDWNLHLLPITSSSQGLYPKSSLMGSFVPFGGFFSSTSDFRIPSSSSMNQTLPRCHLCNEKYEQEVTAFAKSGSMIDDQCSEKLPSWLRNVEHEHEKGNLGKVKDDPNVLASRIPALQKKWDDICQRIHQTPAFPKLSFQPVRPQFPLQLGSSSQTKMSLGSPTEKIVCTRTSESFQGMVALPQNPPHQPGLSVKISKPKHTEDLSSSTTNSPLSFVTTDLGLGTIYASKNQEPSTPVSVERRDFEVIKEKQLLSASRYCKDFKSLRELLSRKVGFQNEAVNAISEIVCGYRDESRRRNNHVATTSNVWLALLGPDKAGKKKVALALAEVFCGGQDNFICVDFKSQDSLDDRFRGKTVVDYIAGEVARRADSVVFIENVEKAEFPDQIRLSEAMRTGKLRDSHGREISMKNVIVVATISGSDKASDCHVLEEPVKYSEERVLNAKNWTLQIKLADTSNVNKNGPNKRRQEEAETEVTELRALKSQRSFLDLNLPVDEIEANEDEAYTMSENTEAWLEDFVEQVDGKVTFKLIDFDELAKNIKRNILSLFHLSFGPETHLEIENDVILKILAALRWSSDEEKTFDQWLQTVLAPSFAKARQKCVPAAPFSVKLVASRESPAEEETTGIQQFPARVEVI
